Measured values: the supplement of paper PMC10849652
Some of the results follow.

The chains behind the UniProt entries cited, without tags or fusion partners. Where a name states a change or a piece, a line headed by the entry shows the natural chain unless it says otherwise.
UniProt Q9Y673: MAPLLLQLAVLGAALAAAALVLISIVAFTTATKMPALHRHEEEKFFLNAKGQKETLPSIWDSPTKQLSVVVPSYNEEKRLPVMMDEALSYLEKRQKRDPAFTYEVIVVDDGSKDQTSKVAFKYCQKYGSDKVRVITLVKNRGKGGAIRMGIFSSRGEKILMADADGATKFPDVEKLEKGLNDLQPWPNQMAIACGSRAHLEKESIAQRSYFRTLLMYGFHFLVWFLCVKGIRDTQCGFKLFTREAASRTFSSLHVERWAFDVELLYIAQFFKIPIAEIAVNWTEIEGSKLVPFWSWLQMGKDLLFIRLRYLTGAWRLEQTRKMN
UniProt Q8TCU4: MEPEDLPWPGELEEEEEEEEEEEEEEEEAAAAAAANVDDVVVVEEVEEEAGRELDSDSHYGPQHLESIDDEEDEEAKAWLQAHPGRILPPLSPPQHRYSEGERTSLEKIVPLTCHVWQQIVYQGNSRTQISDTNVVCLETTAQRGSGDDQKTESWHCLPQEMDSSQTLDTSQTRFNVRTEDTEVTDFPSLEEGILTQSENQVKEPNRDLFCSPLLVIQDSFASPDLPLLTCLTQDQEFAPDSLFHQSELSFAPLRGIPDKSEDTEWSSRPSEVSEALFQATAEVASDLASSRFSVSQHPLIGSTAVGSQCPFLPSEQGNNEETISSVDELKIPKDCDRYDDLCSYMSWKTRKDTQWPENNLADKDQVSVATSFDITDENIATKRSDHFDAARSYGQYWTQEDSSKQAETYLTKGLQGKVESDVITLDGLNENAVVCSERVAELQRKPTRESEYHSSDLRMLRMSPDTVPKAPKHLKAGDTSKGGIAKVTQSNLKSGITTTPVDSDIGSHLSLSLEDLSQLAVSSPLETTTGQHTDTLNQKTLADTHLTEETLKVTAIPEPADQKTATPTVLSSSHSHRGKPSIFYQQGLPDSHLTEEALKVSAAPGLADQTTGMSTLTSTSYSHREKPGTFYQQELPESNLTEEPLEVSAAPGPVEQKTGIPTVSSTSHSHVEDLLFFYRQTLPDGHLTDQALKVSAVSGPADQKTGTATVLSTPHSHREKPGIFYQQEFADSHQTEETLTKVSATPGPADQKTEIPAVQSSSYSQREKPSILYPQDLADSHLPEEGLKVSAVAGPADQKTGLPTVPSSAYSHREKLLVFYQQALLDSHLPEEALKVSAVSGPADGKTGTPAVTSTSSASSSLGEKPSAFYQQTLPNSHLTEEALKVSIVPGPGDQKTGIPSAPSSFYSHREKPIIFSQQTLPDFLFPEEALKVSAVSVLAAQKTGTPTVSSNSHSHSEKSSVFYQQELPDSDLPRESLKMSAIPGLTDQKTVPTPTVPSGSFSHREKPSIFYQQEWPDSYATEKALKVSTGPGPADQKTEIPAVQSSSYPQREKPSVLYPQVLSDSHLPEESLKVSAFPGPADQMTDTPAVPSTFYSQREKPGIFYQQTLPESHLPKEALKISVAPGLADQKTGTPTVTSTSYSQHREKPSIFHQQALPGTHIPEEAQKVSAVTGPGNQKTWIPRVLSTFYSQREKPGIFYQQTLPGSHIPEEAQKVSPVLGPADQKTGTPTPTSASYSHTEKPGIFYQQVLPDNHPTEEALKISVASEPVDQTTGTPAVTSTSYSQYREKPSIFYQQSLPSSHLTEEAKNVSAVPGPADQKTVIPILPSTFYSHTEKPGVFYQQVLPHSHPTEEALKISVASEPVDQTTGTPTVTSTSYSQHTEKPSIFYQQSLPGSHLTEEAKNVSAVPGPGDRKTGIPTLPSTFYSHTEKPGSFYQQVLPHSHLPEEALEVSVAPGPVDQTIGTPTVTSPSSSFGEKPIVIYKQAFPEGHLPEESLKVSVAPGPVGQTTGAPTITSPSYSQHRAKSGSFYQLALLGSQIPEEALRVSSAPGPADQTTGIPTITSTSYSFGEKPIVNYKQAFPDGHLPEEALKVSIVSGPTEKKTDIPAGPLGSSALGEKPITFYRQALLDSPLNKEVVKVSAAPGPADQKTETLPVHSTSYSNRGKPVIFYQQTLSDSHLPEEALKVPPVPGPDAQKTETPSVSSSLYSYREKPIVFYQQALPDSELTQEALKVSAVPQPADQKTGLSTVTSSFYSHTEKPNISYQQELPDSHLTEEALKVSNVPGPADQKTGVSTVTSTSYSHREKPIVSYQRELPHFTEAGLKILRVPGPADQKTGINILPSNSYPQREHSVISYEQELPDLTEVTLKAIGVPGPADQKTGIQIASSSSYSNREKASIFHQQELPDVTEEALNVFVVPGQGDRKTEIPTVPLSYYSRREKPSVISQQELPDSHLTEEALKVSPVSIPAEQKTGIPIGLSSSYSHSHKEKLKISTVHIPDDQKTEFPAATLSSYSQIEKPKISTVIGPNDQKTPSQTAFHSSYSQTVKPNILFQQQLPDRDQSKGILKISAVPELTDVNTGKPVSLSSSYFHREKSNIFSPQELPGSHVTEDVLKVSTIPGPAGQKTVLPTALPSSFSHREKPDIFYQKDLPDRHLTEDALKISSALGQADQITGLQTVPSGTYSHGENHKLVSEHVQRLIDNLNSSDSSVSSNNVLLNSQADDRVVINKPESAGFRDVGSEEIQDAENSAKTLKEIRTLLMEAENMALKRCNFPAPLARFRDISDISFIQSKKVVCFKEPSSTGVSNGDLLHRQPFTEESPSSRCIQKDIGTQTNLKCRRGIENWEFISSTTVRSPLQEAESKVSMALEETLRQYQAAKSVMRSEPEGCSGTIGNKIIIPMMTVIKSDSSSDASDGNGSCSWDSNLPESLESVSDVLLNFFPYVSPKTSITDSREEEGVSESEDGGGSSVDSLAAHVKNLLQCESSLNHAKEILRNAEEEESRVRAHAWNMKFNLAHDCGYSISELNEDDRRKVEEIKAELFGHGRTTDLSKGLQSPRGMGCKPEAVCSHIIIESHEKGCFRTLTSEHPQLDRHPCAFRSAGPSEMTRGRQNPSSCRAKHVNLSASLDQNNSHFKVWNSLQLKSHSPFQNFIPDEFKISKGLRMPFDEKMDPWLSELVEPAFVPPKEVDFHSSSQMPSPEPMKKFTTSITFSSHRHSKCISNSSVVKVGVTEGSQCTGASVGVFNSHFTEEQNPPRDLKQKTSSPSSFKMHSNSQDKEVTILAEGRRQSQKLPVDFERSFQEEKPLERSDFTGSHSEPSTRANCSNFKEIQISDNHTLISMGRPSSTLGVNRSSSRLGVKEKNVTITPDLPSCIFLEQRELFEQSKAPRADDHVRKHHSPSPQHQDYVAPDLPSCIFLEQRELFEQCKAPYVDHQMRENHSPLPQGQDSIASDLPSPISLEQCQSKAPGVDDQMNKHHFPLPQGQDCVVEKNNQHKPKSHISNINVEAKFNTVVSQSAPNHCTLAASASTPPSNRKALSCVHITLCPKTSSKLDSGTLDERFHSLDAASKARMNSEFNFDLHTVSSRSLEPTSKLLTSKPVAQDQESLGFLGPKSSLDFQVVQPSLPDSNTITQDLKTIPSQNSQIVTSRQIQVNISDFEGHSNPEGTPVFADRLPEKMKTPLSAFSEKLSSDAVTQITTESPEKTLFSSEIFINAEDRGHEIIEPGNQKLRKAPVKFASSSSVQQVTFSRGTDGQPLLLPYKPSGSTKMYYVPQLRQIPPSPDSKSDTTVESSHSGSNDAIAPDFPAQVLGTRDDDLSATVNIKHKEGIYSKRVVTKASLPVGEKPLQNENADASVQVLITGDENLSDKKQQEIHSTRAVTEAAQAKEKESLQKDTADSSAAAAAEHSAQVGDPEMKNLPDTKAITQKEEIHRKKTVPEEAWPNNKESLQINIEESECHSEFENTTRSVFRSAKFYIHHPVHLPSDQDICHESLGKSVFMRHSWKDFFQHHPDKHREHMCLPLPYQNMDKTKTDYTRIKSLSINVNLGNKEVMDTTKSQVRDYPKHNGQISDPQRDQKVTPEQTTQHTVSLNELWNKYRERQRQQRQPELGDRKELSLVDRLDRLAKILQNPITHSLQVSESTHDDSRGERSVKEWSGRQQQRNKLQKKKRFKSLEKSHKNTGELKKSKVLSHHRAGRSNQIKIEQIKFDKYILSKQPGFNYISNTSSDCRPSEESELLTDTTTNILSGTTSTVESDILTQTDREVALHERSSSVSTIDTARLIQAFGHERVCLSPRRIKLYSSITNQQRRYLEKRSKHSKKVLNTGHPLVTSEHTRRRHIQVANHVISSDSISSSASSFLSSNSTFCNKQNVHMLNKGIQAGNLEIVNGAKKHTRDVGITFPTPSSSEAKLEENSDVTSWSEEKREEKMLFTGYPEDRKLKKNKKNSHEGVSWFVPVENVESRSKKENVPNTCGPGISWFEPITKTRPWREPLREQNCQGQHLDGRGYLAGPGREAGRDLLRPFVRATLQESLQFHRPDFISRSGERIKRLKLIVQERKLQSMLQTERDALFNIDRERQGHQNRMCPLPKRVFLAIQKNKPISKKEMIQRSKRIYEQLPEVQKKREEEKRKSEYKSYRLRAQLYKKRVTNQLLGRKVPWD
UniProt Q63HQ0: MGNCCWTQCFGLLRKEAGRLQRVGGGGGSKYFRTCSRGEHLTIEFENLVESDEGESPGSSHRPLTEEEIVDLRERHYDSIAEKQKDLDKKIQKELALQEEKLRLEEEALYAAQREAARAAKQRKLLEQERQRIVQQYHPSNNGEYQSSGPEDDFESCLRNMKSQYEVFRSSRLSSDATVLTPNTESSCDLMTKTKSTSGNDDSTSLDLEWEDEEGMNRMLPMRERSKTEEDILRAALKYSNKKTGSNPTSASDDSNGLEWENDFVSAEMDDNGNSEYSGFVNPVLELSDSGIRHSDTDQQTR
UniProt Q9BV10: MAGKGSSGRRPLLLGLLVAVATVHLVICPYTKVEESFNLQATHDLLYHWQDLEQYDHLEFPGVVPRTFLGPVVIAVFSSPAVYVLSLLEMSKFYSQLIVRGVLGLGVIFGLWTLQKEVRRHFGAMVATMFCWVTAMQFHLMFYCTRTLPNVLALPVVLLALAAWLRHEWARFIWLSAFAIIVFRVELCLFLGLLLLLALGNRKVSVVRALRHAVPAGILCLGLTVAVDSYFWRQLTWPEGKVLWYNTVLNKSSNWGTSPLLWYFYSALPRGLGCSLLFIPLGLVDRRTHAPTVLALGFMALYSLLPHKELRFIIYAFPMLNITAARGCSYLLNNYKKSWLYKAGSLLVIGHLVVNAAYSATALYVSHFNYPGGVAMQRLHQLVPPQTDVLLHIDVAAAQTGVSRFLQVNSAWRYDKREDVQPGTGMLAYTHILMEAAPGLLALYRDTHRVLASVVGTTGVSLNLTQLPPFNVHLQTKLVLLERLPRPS
UniProt Q2TAA5: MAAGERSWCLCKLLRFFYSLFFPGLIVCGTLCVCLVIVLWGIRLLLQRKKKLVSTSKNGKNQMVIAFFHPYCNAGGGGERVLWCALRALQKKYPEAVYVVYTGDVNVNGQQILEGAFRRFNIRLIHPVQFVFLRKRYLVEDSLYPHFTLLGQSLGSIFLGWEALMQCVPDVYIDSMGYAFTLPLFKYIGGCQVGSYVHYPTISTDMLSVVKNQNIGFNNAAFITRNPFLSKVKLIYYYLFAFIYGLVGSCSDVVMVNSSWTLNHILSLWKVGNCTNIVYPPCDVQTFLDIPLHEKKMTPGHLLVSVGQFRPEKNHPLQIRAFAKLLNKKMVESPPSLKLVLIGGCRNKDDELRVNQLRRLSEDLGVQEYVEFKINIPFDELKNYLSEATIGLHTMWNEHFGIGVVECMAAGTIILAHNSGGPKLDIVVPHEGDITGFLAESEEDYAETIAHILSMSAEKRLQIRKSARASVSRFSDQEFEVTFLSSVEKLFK
UniProt O75342: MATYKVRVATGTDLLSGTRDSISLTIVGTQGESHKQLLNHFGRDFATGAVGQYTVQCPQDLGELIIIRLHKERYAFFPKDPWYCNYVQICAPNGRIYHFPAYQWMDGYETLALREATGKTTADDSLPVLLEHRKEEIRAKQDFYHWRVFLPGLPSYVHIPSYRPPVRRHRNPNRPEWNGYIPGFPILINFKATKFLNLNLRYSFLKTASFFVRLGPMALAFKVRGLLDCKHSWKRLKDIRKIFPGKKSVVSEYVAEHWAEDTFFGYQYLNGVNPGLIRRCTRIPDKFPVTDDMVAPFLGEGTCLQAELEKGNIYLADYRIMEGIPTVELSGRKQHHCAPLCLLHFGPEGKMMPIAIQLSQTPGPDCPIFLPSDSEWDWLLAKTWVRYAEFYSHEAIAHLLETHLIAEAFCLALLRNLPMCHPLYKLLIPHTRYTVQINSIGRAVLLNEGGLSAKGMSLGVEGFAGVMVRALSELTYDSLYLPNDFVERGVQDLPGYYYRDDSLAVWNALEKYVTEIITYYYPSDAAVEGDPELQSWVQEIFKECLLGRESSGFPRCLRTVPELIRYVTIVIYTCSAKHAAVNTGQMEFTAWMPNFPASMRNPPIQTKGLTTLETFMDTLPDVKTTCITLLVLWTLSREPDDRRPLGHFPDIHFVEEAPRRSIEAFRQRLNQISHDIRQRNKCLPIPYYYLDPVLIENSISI

What was measured:
Assay in all cases: log2 fold change, soluble protein after heating vs DMSO (PISA); higher = thermal stabilisation; K562 lysate, 10 uM; active = over 0.2 and 3.5 SD of the protein, either way, in both replicates (recomputed)
alvocidib = compound: CN1CC[C@H](c2c(O)cc(O)c3c(=O)cc(-c4ccccc4Cl)oc23)[C@H](O)C1 [alvocidib]
Summary of the method: (§1)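 Log-two fold change in thermal stability relative to solvent controls is reported from duplicates. For each sample, crude K562 extract from dounce-homogenised pellets in PBS pH 7.4 with 1 mM MgCl2, at 1 mg/mL protein, was treated with 10 μM compound for 30 min. Aliquots heated for 3 min across 48°C-58°C were pooled, brought to 0.5% NP-40 at 4°C and cleared at 21,000xg for 90 min. The supernatant was quantified by TMTpro 16plex LC-MS/MS with channel sums equalised.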

Tubastatin A = compound: CN1CCc2c(c3ccccc3n2Cc2ccc(C(=O)NO)cc2)C1 [Tubastatin A]
Summary of the method: as §1

[1] = compound: CNC(=O)C1=CC=CC=C1NC2=NC(=NC=C2Cl)NC3=C(C=C(C=C3)N4CCOCC4)OC
Summary of the method: as §1

defactinib = compound: CNC(=O)c1ccc(Nc2ncc(C(F)(F)F)c(NCc3nccnc3N(C)S(C)(=O)=O)n2)cc1 [defactinib]
Summary of the method: as §1

[2] = compound: CNc1nc(-c2ccc3c(N)n[nH]c3c2)cc(N2C[C@@H](C(=O)NC3CCCCC3)CC[C@H]2C)n1
Summary of the method: as §1

encorafenib = compound: COC(=O)N[C@@H](C)CNc1nccc(-c2cn(C(C)C)nc2-c2cc(Cl)cc(NS(C)(=O)=O)c2F)n1 [encorafenib]
Summary of the method: as §1

[3] = compound: COC(=O)[C@H](CCSC)NC(=O)C1=C(C=C(C=C1)NC[C@H](CS)N)C2=CC=CC=C2
Summary of the method: as §1

alisertib = compound: COc1cc(Nc2ncc3c(n2)-c2ccc(Cl)cc2C(c2c(F)cccc2OC)=NC3)ccc1C(=O)O [alisertib]
Summary of the method: as §1

[4] = compound: COc1cc2nc(-c3cc(F)ccc3O)nc(N[C@@H]3CNC[C@H]3C(C)(C)O)c2cc1OC
Summary of the method: as §1

gefitinib = compound: COc1cc2ncnc(Nc3ccc(F)c(Cl)c3)c2cc1OCCCN1CCOCC1 [gefitinib]
Summary of the method: as §1

Measured: log2 fold change

ALG5 (UniProt Q9Y673)
inactive: alvocidib -0.012 | Tubastatin A 0.084 | [1] -0.048 | defactinib -0.018 | [2] -0.001 | encorafenib 0.031 | [3] 0.004 | alisertib -0.01 | [4] 0.042 | gefitinib 0.075

ANKRD40 (UniProt Q6AI12)
inactive: alvocidib 0.084 | Tubastatin A -0.164 | [1] 0.08 | defactinib 0.095 | [2] 0.101 | encorafenib 0.04 | [3] -0.109 | alisertib -0.188 | gefitinib -0.089

ALG9 isoform 3 (UniProt Q9H6U8)
inactive: alvocidib -0.063 | Tubastatin A -0.022 | [1] -0.055 | defactinib -0.008 | [2] 0.009 | encorafenib -0.008 | [3] 0.032 | alisertib 0.012 | [4] 0.019 | gefitinib -0.041

ANK1 isoform 14 (UniProt P16157)
inactive: alvocidib 0.03 | Tubastatin A -0.083 | [1] 0.036 | defactinib 0.008 | [2] -0.019 | encorafenib 0.018 | [3] 0.104 | alisertib -0.012 | [4] 0.009 | gefitinib 0.006

AP3B1 (UniProt O00203)
inactive: alvocidib -0.013 | Tubastatin A -0.031 | [1] 0.008 | defactinib 0.019 | [2] 0.047 | encorafenib 0.029 | [3] 0.028 | alisertib 0.011 | [4] -0.001 | gefitinib -0.008

ANP32E (UniProt Q9BTT0)
inactive: alvocidib 0 | Tubastatin A 0.079 | [1] -0.007 | defactinib -0.018 | [2] 0.056 | encorafenib -0.037 | [3] -0.008 | alisertib -0.019 | [4] 0.007 | gefitinib -0.061

AP2A1 (UniProt O95782)
inactive: alvocidib 0.003 | Tubastatin A 0.026 | [1] 0.054 | defactinib 0.021 | [2] 0 | encorafenib -0.015 | [3] -0.018 | alisertib 0 | [4] -0.004 | gefitinib 0.008

ALMS1 (UniProt Q8TCU4)
inactive: alvocidib -0.083 | Tubastatin A 0.021 | [1] 0.02 | defactinib 0.169 | [2] 0.126 | encorafenib 0.065 | [3] 0.04 | alisertib -0.02 | [4] 0.001 | gefitinib -0.174

Reprinted at random: two records from the list, in no set order.
AP3B1 (UniProt O00203)
inactive: alvocidib -0.013 | Tubastatin A -0.031 | [1] 0.008 | defactinib 0.019 | [2] 0.047 | encorafenib 0.029 | [3] 0.028 | alisertib 0.011 | [4] -0.001 | gefitinib -0.008

ALMS1 (UniProt Q8TCU4)
inactive: alvocidib -0.083 | Tubastatin A 0.021 | [1] 0.02 | defactinib 0.169 | [2] 0.126 | encorafenib 0.065 | [3] 0.04 | alisertib -0.02 | [4] 0.001 | gefitinib -0.174

Following part.

ANAPC4 isoform 3 (UniProt Q9UJX5)
inactive: alvocidib -0.004 | Tubastatin A -0.034 | [1] 0.044 | defactinib 0.023 | [2] 0.03 | encorafenib -0.017 | [3] -0.056 | alisertib -0.01 | [4] 0.012 | gefitinib 0.007

AMDHD2 isoform 3 (UniProt Q9Y303)
inactive: alvocidib -0.016 | Tubastatin A 0 | [1] 0.018 | defactinib 0.014 | [2] 0.018 | encorafenib -0.028 | [3] 0.1 | alisertib 0.023 | [4] -0.013 | gefitinib 0.034

AMFR (UniProt Q9UKV5)
inactive: alvocidib -0.143 | Tubastatin A -0.071 | [1] -0.049 | defactinib 0.124 | [2] -0.064 | encorafenib 0.085 | [3] 0.083 | alisertib 0.094 | gefitinib 0.076

ANXA13 isoform 2 (UniProt P27216)
inactive: alvocidib -0.121 | Tubastatin A -0.072 | [1] -0.059 | defactinib -0.036 | [2] -0.369 | alisertib 0.047 | [4] 0.034 | gefitinib 0.085

ANKRD29 (UniProt Q8N6D5)
inactive: alvocidib -0.158 | [1] -0.139 | defactinib -0.09 | [2] -0.054 | encorafenib -0.1 | [3] 0.164 | alisertib 0.014 | [4] 0.048 | gefitinib 0.383

AP1AR (UniProt Q63HQ0)
inactive: alvocidib -0.033 | Tubastatin A 0.089 | [1] -0.061 | defactinib 0.016 | encorafenib -0.031 | [3] -0.004 | alisertib 0.047 | [4] -0.035 | gefitinib 0.087

ALDOA (UniProt H3BPS8)
inactive: alvocidib 0.091 | [1] -0.206 | defactinib 0.046 | encorafenib -0.104 | [3] 0.186 | alisertib -0.13 | [4] -0.014 | gefitinib -0.254

ALDH3A2 isoform 2 (UniProt P51648)
inactive: alvocidib -0.102 | Tubastatin A -0.393 | [2] -0.347 | alisertib 0.067 | gefitinib -0.07

ANGEL1 (UniProt Q9UNK9)
inactive: alvocidib -0.048 | Tubastatin A 0.25 | alisertib -0.113 | gefitinib -0.135

AP3M2 (UniProt P53677)
inactive: alvocidib -0.017 | Tubastatin A 0.12 | [1] 0.071 | defactinib 0.048 | [2] 0.016 | encorafenib -0.024 | [3] 0.169 | [4] -0.024

AP4M1 (UniProt O00189)
inactive: alvocidib 0.003 | Tubastatin A -0.032 | [1] -0.015 | defactinib 0.107 | [2] -0.046 | encorafenib -0.092 | [3] -0.209 | alisertib -0.016 | gefitinib -0.065

ANKRD10 (UniProt Q9NXR5)
inactive: alvocidib 0.003 | Tubastatin A -0.037 | [1] 0.018 | defactinib 0.012 | [2] -0.016 | alisertib -0.018 | [4] 0.035 | gefitinib -0.047

ALKBH7 (UniProt Q9BT30)
inactive: alvocidib -0.016 | Tubastatin A -0.045 | [1] 0.35 | [2] -0.029 | encorafenib -0.115 | [3] 0.201 | alisertib 0.333 | gefitinib -0.108

ANGPTL4 (UniProt M0R3A2)
inactive: alvocidib 0.025 | Tubastatin A 0.226 | [1] -0.056 | defactinib -0.001 | encorafenib 0.974 | [3] -0.008 | [4] -0.144

ALG12 (UniProt Q9BV10)
inactive: alvocidib -0.004 | Tubastatin A 0.071 | [1] 0.031 | defactinib -0.064 | [2] 0.13 | encorafenib 0.024 | [3] -0.06 | [4] 0.043

ANKS3 (UniProt Q6ZW76)
inactive: alvocidib 0.114 | defactinib 0.133 | [2] 0.101 | encorafenib 0.045 | [3] -0.051 | [4] 0.259

ALG11 (UniProt Q2TAA5)
inactive: alvocidib 0.126 | Tubastatin A 0.081 | [1] 0.113 | [2] -0.069 | alisertib -0.122 | gefitinib -0.036

ANKRD50 (UniProt Q9ULJ7)
inactive: alvocidib -0.047 | Tubastatin A -0.063 | [1] -0.001 | encorafenib -0.259 | [3] 0.193 | alisertib -0.079 | [4] -0.039 | gefitinib -0.042

ALDH3A1 (UniProt P30838)
inactive: alvocidib -0.218 | Tubastatin A 0.366 | [1] -0.065 | [2] -0.138 | [4] 0.165

ANKRD30A (UniProt Q9BXX3)
active: [4] 1.45
inactive: alvocidib -0.148 | Tubastatin A -0.294 | [2] 0.017 | encorafenib 0.053 | [3] 0 | alisertib -0.009 | gefitinib -0.03

ANKHD1 isoform 2 (UniProt Q8IWZ3)
inactive: alvocidib -0.083 | Tubastatin A -0.091 | [1] 0.148 | [2] -0.147 | encorafenib 0.114 | [3] 0.071 | alisertib 0.04 | gefitinib 0.024

ALOX12B (UniProt O75342)
inactive: alvocidib -0.099 | Tubastatin A 0.159 | [1] -0.026 | alisertib 0.016 | gefitinib -0.026

ANXA2 (UniProt H0YL33)
inactive: alvocidib 0.315 | Tubastatin A 0.109 | [1] -0.177 | [2] 0.222 | alisertib 0.001 | [4] 0.005 | gefitinib 0.097

ANKRD44 isoform 2 (UniProt Q8N8A2)
inactive: alvocidib -0.688 | [1] 0.075 | defactinib -0.129 | encorafenib -0.048 | [3] 0.103 | alisertib 0.2 | [4] 0.119 | gefitinib 0.169
